# Record: PubChem BioAssay AID1224830 (NIAID, 2016)
# Test: 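Regulators of TLR4 signalling towards TNF-alpha in macrophage-like cells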 (primary screen)
# Cells: human THP-1 monocytic leukaemia cells, TNF dual-luciferase reporter clone, PMA-differentiated to macrophage-like cells
# Reagent: siRNA pool against human genes, 50 nM
# Timing: LPS for 4 h, given about 3 days after siRNA transfection
# Conditions: bacterial LPS (TLR4 ligand), 10 ng/ml
# Measured: 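Ratio of firefly to renilla light, scaled to the plate median and expressed as a robust z-score per replicate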
# Scale: TNF reporter robust z-score: higher = stronger TNF reporter response to LPS
# Call rule: 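a well is active when its z-score exceeds 2.8 or falls below -1.5; control wells carry no call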
# Here is one part, drawn at random, of about 18,000 deposited reagents. About 2,900 of all reagents (16%) were called active. 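Calls are made per well; low scores hint the gene aids the LPS response, high scores that it dampens it.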 A number with no mark means an inactive call. Repeated entries: four replicate wells of each siRNA pool.
Gene,TNF reporter robust z-score
TCF7L1 (GeneID 83439),-0.84
TCF7L1 (GeneID 83439),-0.57
TCF7L1 (GeneID 83439),0.34
TCF7L1 (GeneID 83439),0.57
ANKRD36B (GeneID 57730),-0.55
ANKRD36B (GeneID 57730),-0.49
ANKRD36B (GeneID 57730),-0.61
ANKRD36B (GeneID 57730),-0.39
LRRTM4 (GeneID 80059),-0.05
LRRTM4 (GeneID 80059),0.21
LRRTM4 (GeneID 80059),-1.16
LRRTM4 (GeneID 80059),-1.01
CNTLN (GeneID 54875),-1.61 (active)
CNTLN (GeneID 54875),-1.32
CNTLN (GeneID 54875),-1.14
CNTLN (GeneID 54875),-0.31
OR52A1 (GeneID 23538),-0.69
OR52A1 (GeneID 23538),-0.72
OR52A1 (GeneID 23538),-0.58
OR52A1 (GeneID 23538),0.36
ZMAT1 (GeneID 84460),-0.15
ZMAT1 (GeneID 84460),-0.57
ZMAT1 (GeneID 84460),-0.45
ZMAT1 (GeneID 84460),-0.17
GTF2H3 (GeneID 2967),-0.46
GTF2H3 (GeneID 2967),-0.15
GTF2H3 (GeneID 2967),-0.26
GTF2H3 (GeneID 2967),-0.69
NCAPG2 (GeneID 54892),0.24
NCAPG2 (GeneID 54892),5.46 (active)
NCAPG2 (GeneID 54892),8.3 (active)
NCAPG2 (GeneID 54892),0.88
SLC12A7 (GeneID 10723),1.04
SLC12A7 (GeneID 10723),1.62
SLC12A7 (GeneID 10723),0.18
SLC12A7 (GeneID 10723),1.59
NMRK2 (GeneID 27231),2.57
NMRK2 (GeneID 27231),3.06 (active)
NMRK2 (GeneID 27231),2.59
NMRK2 (GeneID 27231),2.01
SYTL3 (GeneID 94120),0.7
SYTL3 (GeneID 94120),-0.18
SYTL3 (GeneID 94120),-0.83
SYTL3 (GeneID 94120),1.03
FAM120AOS (GeneID 158293),-0.63
FAM120AOS (GeneID 158293),0.04
FAM120AOS (GeneID 158293),-0.77
FAM120AOS (GeneID 158293),-0.94
